According to PubChem BioAssay AID1347423 (Functional Genomics Laboratory (NCATS/FGL), 2020):
Among all 52,000 sequences or so, about 210 (0.4%) were called active.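 How the source made its calls: active means gene whose silencing raises cell survival under the drug, median off-target-corrected z-score across its silencing RNAs 2 or more; inactive means the rest.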 The list shows a part of the results.

Test: Resistance to Poly (ADP-Ribose) Polymerase inhibitor: Gene Identification via Genome-wide siRNA Screen
Details: mouse BRCA2 R2336H ES cells, olaparib, CellTiter-Glo viability; active compounds read high
Summary of the method: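 Genome-wide siRNA screen (3 siRNAs/gene, 20 nM) in mouse ES cells carrying hypomorphic BRCA2 R2336H; olaparib 500 nM added 48 h post-transfection, CellTiter-Glo viability 72 h later. Normalized to plate-median negative control; MAD z-scores, gene median, seed-adjusted.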

Sequence	z-score
GGCUGAAAUCUCAAUGGCUTT against BC037594	inactive: 1.46
UUGACAGCUGGUAGACACUTT against 2210021J22Rik	inactive: -0.867
GGCCGGAUUGUCUAUAUUUTT against Per1	inactive: -1.24
GGCACUCAGGAAAAAAAAGTT against Clstn3	inactive: -0.0339
CGGAGCUAAUAUUUUAUGCTT against Mospd1	inactive: -0.812
GCCUUGAGUGCAUUAAUUUTT against Ube2r2	inactive: -0.418
GGAAGAGAAAGUAAAGAAGTT against Hcph	inactive: 1.13
GGAAUACUCUUAAAUGACUTT against Zfp455	inactive: -0.918
GCCUGUACUUUCGACUUCUTT against Fpr1	inactive: -1.02
GGAGAGCUGUUUGACUACATT against Melk	inactive: -0.685
CCUUUUCAUAUGGUACUCCTT against Ranbp6	inactive: 0.286
CGGACCUAUGCAAGAAGAUTT against 2310020A21Rik	inactive: -2.11
GGACAAGUUUACAAUGCAATT against 4930465K10Rik	inactive: 0.562
CCGGAUGUGCCUUGUCUACTT against 4930432B04Rik	inactive: -2.68
GGAAAUUAUCUGCUUCUCATT against Dqx1	inactive: -1.05
GGUUGUGAAACAGCAAUUCTT against Ptx3	inactive: -0.099
GCAUCAAUUCCCAAACCUUTT against LOC280621	inactive: 1.12
CGAGGUCUAUAACAUGACCTT against Smox	inactive: 1.66
CCGGGAAGUGGAUAAUUUUTT against Olfr1368	inactive: 0.0282
GGAACAUUUCACCUUUUAGTT against 1110002B05Rik	inactive: 1.79
GGUGUAGAGAUUCACAGGUTT against Foxd1	inactive: 0.985
GGAGUUUGUCUUCUCUUUCTT against Foxf1a	inactive: -0.805
CCGACGUGCAUGGAGAAAATT against 1700030J22Rik	inactive: -1.71
GGAUCAAAAAAAAACUGGATT against Tera	inactive: -2.07
GGAAUUCAGUUUUACCUGUTT against Slc6a13	inactive: 0.422
CCGGUCCUCUCAGAAAUUATT against Asz1	inactive: 1.05

Sequence	z-score
CGCAUCGACAGCUAUGUCATT against Rhbdf1	inactive: 1.64
GGAUCUACUACCUGUCUUUTT against Pygm	inactive: -0.175
GCUUCUACCAAUGUUUAUCTT against Slc5a3	inactive: 0.61
CCAUAGUUUUGGUUACCAATT against E330037G11Rik	inactive: 0.795
GGCAGAGAAUCAGCUCCUUTT against Il16	inactive: -2.31
GGAUCUUCUACACAGUAAATT against Ppp2r3a	inactive: 0.38
GGAGGACGUGAACUUUGACTT against Stk32c	inactive: 0.642
GCAUUCUACAACGAUCCCUTT against Hdac5	inactive: -0.67
GGCCAUUGAGCUCAACCCUTT against Sgta	inactive: 0.429
CGACCUUAAGCUAAGCAGUTT against Laf4	inactive: -0.43
GCCGAAUUGGACAAGUCUATT against Plxnd1	inactive: -1.18
GGAAUUCAGGAUAUAAGGATT against Fut7	inactive: -0.415
GGUCCAAUUAACCUAUCUUTT against AW555814	inactive: -2.08
GCAGGAGCUGAAGCAAAGATT against 2410005K17Rik	inactive: -1.87
CCGUCUAUACAUCUUUCCATT against D630005B22Rik	inactive: -1.51
GAACCUUCUGCUUUGAUGCTT against Olfr641	inactive: 0.824
CCACACUAGAAUGAACAUATT against 3830417A13Rik	inactive: -2.63
GGUGAACAUGUUUACAAACTT against Btf3	inactive: -0.466
GGUCAGAUACAAUGUAUAUTT against Ap1s3	inactive: -0.387
CCUCUCUGUACAGUCAACCTT against Fndc6	inactive: -0.404
GGUUUACUGGUAAUUUUCATT against 2610318I01Rik	inactive: -0.282
GGACGAGUCACACUUUGGATT against Cdyl2	inactive: 0.249
GGAUUUCGUCGAAAAGAAUTT against Mical3	inactive: -1.34
GGACCUAAGCAUUUUACAUTT against Traf2	inactive: 0.224
GGUAGCCAAUGGGAAAAAATT against Cnot6l	inactive: 1.72
GGAAUUGAAACACAUCUCUTT against Sntb1	inactive: 0.706

As entered above.
GCAGGAGCUGAAGCAAAGATT against 2410005K17Rik – z-score: inactive: -1.87
GGAUCUACUACCUGUCUUUTT against Pygm – z-score: inactive: -0.175
GGAUUUCGUCGAAAAGAAUTT against Mical3 – z-score: inactive: -1.34
GGCAGAGAAUCAGCUCCUUTT against Il16 – z-score: inactive: -2.31

Later entries.

Sequence	z-score
GGUCCUCCAAAAAAAGCAATT against Prlpi	inactive: 0.645
CCACGAGAACCUCAAGGGUTT against Ckm	inactive: 0.587
GCGAAGCUAUGGAGACAUGTT against Trib2	inactive: 0.293
GGUCACCUCUCCAUCUAGATT against D430014M15	inactive: -0.253
GGACUUGAAAAUUGUUCUUTT against Lass5	inactive: -1.43
CCUAAUAAGCCAUAUGCAUTT against 4930562C03Rik	inactive: 1.1
GGAGGUGGUGCUUAAAGGUTT against Rnf122	inactive: 0.511
GGCCCAUUACUUGUUGACUTT against BC025462	inactive: -1.67
GGCCUUUUGCCAUUGACAUTT against B3gat2	inactive: 0.687
GGAGUGGAAGUUCAAAGAGTT against Anapc11	inactive: 0.578
GGUGAUAUAGCUAUUUUCUTT against Fbxw11	inactive: 0.952
GGACCUUCCAGCAAGAUUUTT against Rnf13	inactive: -0.477
GGGUUCUUUCACUGAACGATT against AW539964	inactive: -0.585
CCAAGACAAGAGCGAUUAATT against 1110019O13Rik	inactive: 0.116
GCAUCUACCAUGGAAAUAUTT against Clcn7	inactive: -0.72
GGAACUAGCCGUGAUGAUGTT against Htr1f	inactive: -1.28
GGUUUCUUCUAAGAACAAATT against Astl	inactive: 1.09
GGCCAUUACUCUGAUUCAUTT against Phyhipl	inactive: 0.889
CGUACAAUCAUGUGUAAUGTT against 1110059E24Rik	inactive: 0.92
CCUGGAAUACAAGACAUGATT against BC065151	inactive: -0.999
GGCACGAGCUCUCAUCUUUTT against Slc27a4	inactive: -0.181
CGACGACGAGUUUCUCCAUTT against 1810026J23Rik	inactive: -1.77
GGACAGCUAUUUGUUUUACTT against Azi2	inactive: 1.81
GCAUGUGCCUGACUGGGUUTT against D5Wsu178e	inactive: -1.46
GGUGACUUCGGAGAAAAGGTT against Sncaip	inactive: -0.0664
GGGACAAAGGCUCAACAUATT against AL024069	inactive: -0.231

Sequence	z-score
GCAAGAGACCUUGUUAUAGTT against BC003236	inactive: -0.871
GGCUAGAAAGGGUCUCAAATT against Cyp3a25	inactive: 0.0689
GGGCAGAAACAAAAGGUUATT against Tmlhe	inactive: 1.08
GGCAGCAGUAAAGAAAAAGTT against Jtv1	inactive: 0.273
GGAACUCCAAACCAGAUACTT against Gemin7	inactive: -0.753
GGAAAGGAUAAAGUAUAUCTT against Calmbp1	inactive: 0.278
GGAGGGCAAGAUAGAUGAGTT against Tnfrsf6	inactive: 1.22
UAGGUUCAUUAUGGUGCCATT against D530030D03Rik	inactive: 1.03
GGUACAAUACAUUCAAACATT against Serpinb6c	inactive: 0.531
GGAUGUCACUGAAAUUGCCTT against 4930500E24Rik	inactive: 0.406
GGAAACCAGGAAUGUUAAUTT against Mrps2	inactive: -0.308
GGCAAAAGUACUGAUCACATT against Pcdhga7	inactive: -0.168
GGAUUUCAAUGAAACUCAGTT against Antxr1	inactive: -0.142
GGACUUGUGGCUGAAAACCTT against Slc22a7	inactive: 0.176
CGACAAUGUGCCGAUGUUGTT against Pcdha8	inactive: -1.57
GGAAUGUGUUAAAAGCACUTT against Fign	inactive: 0.647
GGGUGCAGUGUUGUUUAUATT against 7-Sep	inactive: 1.51
GCCGCAUCCACACAUCUCUTT against Daam2	inactive: 0.684
GGUUGUCACAACAACAAUGTT against Oit3	inactive: 0.426
CCAUAUUACAACAACUCUCTT against Sytl4	inactive: 0.462
GGGCCAGUUCCCAAUGAAATT against Gfm	inactive: 0.687
GGCCAGAGCCUGAAUUCUUTT against Bag4	inactive: -0.642
CCUUAAGUGUGUCAGGGCATT against 1110058L19Rik	inactive: -1.58
GCCCAUGAGUCAACAGUACTT against Ss18l1	inactive: 0.436
GGGAAGUACACAUUGAUUATT against Ndst4	inactive: -0.162
CCUUGAAUUUAACAGGGAUTT against 4930506M07Rik	inactive: -0.401
